Laboratory results as given in PMC3048431.
These are yes or no findings as the source states them, for the method shown. Binding seen in cells or lysates may run through a third protein. Some binding calls cover weakened binding; strength is not graded here.

Protein sequences, listed by entry. Tags and fused reporters are not part of them.
UniProt A2A884: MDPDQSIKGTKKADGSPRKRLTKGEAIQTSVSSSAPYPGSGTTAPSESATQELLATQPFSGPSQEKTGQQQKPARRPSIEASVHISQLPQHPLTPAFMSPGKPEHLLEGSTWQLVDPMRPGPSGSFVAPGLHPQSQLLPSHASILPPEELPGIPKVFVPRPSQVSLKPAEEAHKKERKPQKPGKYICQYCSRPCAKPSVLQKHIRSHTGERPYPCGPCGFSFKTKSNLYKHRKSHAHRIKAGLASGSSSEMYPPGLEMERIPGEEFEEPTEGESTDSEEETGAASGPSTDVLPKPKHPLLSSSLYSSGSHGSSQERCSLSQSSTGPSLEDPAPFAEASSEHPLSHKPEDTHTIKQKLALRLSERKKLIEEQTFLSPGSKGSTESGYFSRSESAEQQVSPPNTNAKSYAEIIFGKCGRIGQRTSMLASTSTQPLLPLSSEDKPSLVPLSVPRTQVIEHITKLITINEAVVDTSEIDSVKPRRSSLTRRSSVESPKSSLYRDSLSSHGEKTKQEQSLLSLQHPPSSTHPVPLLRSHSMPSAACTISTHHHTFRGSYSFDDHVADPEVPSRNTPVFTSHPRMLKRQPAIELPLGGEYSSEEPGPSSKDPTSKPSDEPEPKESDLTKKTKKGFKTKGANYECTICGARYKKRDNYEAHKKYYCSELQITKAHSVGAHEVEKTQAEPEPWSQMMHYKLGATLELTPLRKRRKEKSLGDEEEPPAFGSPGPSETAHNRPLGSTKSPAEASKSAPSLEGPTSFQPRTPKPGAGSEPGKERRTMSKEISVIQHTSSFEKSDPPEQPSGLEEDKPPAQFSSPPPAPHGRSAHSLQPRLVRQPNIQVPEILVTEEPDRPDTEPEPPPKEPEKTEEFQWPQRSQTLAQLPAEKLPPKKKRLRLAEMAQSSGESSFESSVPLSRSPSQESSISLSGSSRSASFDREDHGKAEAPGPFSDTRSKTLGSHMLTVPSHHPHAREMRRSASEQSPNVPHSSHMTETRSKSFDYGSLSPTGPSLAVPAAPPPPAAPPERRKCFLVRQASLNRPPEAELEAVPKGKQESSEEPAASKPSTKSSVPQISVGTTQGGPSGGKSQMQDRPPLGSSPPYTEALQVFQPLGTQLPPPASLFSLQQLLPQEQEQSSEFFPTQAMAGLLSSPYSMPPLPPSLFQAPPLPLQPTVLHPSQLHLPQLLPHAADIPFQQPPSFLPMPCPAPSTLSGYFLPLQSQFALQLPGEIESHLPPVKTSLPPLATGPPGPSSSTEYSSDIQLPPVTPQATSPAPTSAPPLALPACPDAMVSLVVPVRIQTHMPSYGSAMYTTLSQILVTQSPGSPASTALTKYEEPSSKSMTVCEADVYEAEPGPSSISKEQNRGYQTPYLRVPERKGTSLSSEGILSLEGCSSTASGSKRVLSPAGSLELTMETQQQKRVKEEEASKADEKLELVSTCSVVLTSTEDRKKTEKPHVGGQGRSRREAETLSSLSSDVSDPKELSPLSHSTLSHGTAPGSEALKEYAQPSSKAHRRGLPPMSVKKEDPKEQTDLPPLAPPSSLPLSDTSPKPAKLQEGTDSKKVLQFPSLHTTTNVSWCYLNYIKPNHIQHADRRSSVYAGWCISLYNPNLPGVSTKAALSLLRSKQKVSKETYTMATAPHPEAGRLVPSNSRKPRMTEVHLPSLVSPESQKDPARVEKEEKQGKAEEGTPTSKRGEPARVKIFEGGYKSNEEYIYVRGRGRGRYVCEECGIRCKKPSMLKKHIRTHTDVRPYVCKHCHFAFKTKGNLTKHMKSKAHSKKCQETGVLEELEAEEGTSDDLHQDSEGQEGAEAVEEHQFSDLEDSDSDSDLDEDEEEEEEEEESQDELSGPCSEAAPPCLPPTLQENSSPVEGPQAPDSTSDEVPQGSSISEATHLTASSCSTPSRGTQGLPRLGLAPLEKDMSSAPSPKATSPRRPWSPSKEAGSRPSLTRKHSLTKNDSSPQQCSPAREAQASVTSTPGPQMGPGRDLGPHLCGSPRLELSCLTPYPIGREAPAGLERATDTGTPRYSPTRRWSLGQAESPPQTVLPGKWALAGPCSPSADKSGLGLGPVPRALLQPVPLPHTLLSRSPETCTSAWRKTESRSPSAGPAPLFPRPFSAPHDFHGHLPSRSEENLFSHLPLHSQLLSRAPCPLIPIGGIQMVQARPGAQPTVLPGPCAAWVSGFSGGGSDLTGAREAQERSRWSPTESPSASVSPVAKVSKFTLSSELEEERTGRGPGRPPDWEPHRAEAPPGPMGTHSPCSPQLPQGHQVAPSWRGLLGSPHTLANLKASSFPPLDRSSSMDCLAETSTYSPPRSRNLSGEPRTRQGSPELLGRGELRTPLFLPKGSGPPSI

T1: TRAF6 (mouse (endogenous in RAW 264.7)) (UniProt P70196)
T1 sequence: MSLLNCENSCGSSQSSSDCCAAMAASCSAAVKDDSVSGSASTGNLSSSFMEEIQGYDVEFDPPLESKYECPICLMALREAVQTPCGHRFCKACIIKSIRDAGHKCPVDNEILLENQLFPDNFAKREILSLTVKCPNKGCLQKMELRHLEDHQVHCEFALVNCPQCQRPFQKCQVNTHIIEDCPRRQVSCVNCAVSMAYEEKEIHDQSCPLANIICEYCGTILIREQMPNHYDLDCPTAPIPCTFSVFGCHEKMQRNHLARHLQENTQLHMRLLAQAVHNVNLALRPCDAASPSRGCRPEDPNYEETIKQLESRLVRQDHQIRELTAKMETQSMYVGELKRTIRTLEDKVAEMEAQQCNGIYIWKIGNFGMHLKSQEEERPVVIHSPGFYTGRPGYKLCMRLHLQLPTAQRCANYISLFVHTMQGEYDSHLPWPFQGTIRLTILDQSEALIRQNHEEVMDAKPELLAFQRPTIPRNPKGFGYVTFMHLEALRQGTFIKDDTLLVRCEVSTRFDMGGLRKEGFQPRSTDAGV

B1: TRAF6 (protein, UniProt P70196 1-530)
chain: MSLLNCENSCGSSQSSSDCCAAMAASCSAAVKDDSVSGSASTGNLSSSFMEEIQGYDVEFDPPLESKYECPICLMALREAVQTPCGHRFCKACIIKSIRDAGHKCPVDNEILLENQLFPDNFAKREILSLTVKCPNKGCLQKMELRHLEDHQVHCEFALVNCPQCQRPFQKCQVNTHIIEDCPRRQVSCVNCAVSMAYEEKEIHDQSCPLANIICEYCGTILIREQMPNHYDLDCPTAPIPCTFSVFGCHEKMQRNHLARHLQENTQLHMRLLAQAVHNVNLALRPCDAASPSRGCRPEDPNYEETIKQLESRLVRQDHQIRELTAKMETQSMYVGELKRTIRTLEDKVAEMEAQQCNGIYIWKIGNFGMHLKSQEEERPVVIHSPGFYTGRPGYKLCMRLHLQLPTAQRCANYISLFVHTMQGEYDSHLPWPFQGTIRLTILDQSEALIRQNHEEVMDAKPELLAFQRPTIPRNPKGFGYVTFMHLEALRQGTFIKDDTLLVRCEVSTRFDMGGLRKEGFQPRSTDAGV

Experiments:
[1] = target: T1, TRAF6 (mouse (endogenous in RAW 264.7)); assay: co-IP; total lysates of RAW 264.7 cells incubated with sRANKL (50 ng/ml) for 2 days; IP with ZAS3, TRAF6 or control IgG antibodies (Catch and Release v2.0), 4°C for 16 hours, 5 washes; Western blot of the eluates
[2] = target: large zinc finger protein ZAS3 (mouse (endogenous in RAW 264.7)) (UniProt A2A884); assay: as above

binding [1]	binding [2]	Molecule
binds		large zinc finger protein ZAS3 (from UniProt A2A884 1-2348)
	binds	B1
